Results: paper doi:10.1101/2023.08.16.553469

Target: T1, retron Ec86 reverse transcriptase (E. coli BL21(DE3)) (UniProt P23070)
T1 sequence: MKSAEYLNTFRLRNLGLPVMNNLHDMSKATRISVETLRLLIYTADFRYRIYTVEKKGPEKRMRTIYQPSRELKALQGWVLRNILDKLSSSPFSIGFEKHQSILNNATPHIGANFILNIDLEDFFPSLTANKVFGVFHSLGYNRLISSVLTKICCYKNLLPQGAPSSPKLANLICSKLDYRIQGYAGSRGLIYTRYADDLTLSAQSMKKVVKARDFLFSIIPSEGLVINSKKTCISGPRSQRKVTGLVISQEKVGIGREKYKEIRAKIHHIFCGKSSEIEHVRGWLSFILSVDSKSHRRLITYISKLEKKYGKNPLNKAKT
Assay: SEC

| Substance | binding |
| --- | --- |
| retron Ec86 effector E84A mutant (E. coli BL21(DE3)) | binds |
| retron Ec86 effector N112A mutant (E. coli BL21(DE3)) | binds |
| retron Ec86 effector N113A mutant (E. coli BL21(DE3)) | binds |
| retron Ec86 effector R141A mutant (E. coli BL21(DE3)) | binds |

Results are given in words; binding and its absence hold for the method and conditions named. Binding calls can cover weak binding; strength is not graded here.
